The results in this text go back to paper PMC5342447.

The chains behind the UniProt entries cited, without tags or fusion partners. Where a name states a change or a piece, a line headed by the entry shows the natural chain unless it says otherwise. A line that says so, or that is headed by a name, gives the form on record, which may keep a tag or linker. Residues count along the entry.
GST-Dom 3 of IP3R1 (a.a. 923-1581) (P11881, residues 923-1581): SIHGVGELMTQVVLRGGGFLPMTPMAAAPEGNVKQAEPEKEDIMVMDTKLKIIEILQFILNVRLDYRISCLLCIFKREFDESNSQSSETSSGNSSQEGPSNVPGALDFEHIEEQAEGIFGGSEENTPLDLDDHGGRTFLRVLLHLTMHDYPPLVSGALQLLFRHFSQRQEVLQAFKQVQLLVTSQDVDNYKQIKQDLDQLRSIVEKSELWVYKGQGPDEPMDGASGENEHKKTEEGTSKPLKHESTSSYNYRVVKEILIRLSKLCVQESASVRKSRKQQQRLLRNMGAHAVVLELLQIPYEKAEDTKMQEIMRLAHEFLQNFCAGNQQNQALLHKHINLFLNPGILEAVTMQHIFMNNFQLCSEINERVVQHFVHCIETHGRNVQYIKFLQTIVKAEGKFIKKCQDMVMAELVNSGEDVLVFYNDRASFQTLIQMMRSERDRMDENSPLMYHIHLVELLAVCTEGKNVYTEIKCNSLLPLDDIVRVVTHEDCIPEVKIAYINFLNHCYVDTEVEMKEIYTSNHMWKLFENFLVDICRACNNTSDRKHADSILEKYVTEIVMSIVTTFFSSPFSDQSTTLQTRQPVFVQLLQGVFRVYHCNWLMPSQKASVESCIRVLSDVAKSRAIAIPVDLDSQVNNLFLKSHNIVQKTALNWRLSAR
GST-C-term Dom of IP3R1 (a.a. 2512-2749) (P11881, residues 2512-2749): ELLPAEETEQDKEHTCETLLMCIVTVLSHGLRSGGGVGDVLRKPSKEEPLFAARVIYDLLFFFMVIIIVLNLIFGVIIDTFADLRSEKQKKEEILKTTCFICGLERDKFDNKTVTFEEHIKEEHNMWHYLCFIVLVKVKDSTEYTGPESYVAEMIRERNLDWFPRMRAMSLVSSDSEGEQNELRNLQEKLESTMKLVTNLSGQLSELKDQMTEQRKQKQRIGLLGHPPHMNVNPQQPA
UniProt P10415: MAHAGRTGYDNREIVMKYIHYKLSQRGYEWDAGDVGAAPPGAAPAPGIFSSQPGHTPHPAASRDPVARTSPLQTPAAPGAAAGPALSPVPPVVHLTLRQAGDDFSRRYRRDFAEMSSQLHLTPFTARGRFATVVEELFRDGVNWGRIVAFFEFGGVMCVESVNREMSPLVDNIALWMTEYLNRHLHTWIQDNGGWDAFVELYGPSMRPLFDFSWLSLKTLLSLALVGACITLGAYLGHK
3xFLAG-Bcl-2^GR/AA (P10415, form named): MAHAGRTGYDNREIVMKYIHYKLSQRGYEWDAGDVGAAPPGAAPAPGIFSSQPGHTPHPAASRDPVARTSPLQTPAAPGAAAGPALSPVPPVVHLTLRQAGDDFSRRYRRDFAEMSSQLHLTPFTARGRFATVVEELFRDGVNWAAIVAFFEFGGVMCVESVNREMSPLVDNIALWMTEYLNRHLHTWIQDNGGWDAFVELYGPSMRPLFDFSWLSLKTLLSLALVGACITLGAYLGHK

Results are given in words; binding and its absence hold for the method and conditions named. For part of these data: Binding seen in cells or lysates may run through a third protein. Some results given as binding are weak or reduced against the parent protein; the word gives no strength.

Assay [1] addresses GST-C-term Dom of IP3R1 (a.a. 2512-2749) (UniProt P11881). Kind of assay: pull-down; purified GST-Dom 3 or GST-C-term Dom (0.5 μM) as bait with 100 μg COS-1 lysate, 4°C, 25 mM Tris-HCl pH 7.5, 150 mM NaCl, 1% Triton X-100; glutathione-Sepharose 4B; anti-FLAG blot; wild type also with 3 μM ABT-199 or DMSO in the last hour; only the target purified.
Assay [2] deals with GST-Dom 3 of IP3R1 (a.a. 923-1581) (UniProt P11881). The assay is described as above.
The target of the next assay is T1, biotin-TMD-Bcl-2 peptide.
T1 sequence (peptide, biotin tag (position not stated)): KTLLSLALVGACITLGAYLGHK
As to the kind of experiment: pull-down; biotinylated peptide (30 μg) with 0.35 μM purified GST-C-term Dom over night at 4°C, 50 mM Tris-HCl, 200 mM NaCl, 0.1% NP-40, 1% BSA, pH 7.0; peptide held on neutravidin agarose; anti-GST blot; both purified.

With “3xFLAG-Bcl-2^GR/AA (from UniProt P10415 1-239)”, the binding entry in assay [1] and in assay [2] was “binds” each time.
On to “GST-C-term Dom of IP3R1 (a.a. 2512-2749) (from UniProt P11881 2512-2749) (domain or fragment)”, for which the binding result with biotin-TMD-Bcl-2 peptide was “binds”.
As to “3xFLAG-Bcl-2^ΔC (from UniProt P10415 1-213) (domain or fragment)”, in assay [2], the binding result is “binds”.
Turning to “3xFLAG-Bcl-2^wt (Bcl-2α) (from UniProt P10415 1-239)”, the binding entry in assay [1] and in assay [2] was “binds” in each case.
